These are yes or no findings as the source states them, for the method shown. Binding seen in cells or lysates may run through a third protein. Some results given as binding are weak or reduced against the parent protein; the word gives no strength. For some of these results: Sequences can lack the tags named with a protein.

Sequences of proteins named here, by UniProt entry; tags and fusion partners are left off.
UniProt P46940: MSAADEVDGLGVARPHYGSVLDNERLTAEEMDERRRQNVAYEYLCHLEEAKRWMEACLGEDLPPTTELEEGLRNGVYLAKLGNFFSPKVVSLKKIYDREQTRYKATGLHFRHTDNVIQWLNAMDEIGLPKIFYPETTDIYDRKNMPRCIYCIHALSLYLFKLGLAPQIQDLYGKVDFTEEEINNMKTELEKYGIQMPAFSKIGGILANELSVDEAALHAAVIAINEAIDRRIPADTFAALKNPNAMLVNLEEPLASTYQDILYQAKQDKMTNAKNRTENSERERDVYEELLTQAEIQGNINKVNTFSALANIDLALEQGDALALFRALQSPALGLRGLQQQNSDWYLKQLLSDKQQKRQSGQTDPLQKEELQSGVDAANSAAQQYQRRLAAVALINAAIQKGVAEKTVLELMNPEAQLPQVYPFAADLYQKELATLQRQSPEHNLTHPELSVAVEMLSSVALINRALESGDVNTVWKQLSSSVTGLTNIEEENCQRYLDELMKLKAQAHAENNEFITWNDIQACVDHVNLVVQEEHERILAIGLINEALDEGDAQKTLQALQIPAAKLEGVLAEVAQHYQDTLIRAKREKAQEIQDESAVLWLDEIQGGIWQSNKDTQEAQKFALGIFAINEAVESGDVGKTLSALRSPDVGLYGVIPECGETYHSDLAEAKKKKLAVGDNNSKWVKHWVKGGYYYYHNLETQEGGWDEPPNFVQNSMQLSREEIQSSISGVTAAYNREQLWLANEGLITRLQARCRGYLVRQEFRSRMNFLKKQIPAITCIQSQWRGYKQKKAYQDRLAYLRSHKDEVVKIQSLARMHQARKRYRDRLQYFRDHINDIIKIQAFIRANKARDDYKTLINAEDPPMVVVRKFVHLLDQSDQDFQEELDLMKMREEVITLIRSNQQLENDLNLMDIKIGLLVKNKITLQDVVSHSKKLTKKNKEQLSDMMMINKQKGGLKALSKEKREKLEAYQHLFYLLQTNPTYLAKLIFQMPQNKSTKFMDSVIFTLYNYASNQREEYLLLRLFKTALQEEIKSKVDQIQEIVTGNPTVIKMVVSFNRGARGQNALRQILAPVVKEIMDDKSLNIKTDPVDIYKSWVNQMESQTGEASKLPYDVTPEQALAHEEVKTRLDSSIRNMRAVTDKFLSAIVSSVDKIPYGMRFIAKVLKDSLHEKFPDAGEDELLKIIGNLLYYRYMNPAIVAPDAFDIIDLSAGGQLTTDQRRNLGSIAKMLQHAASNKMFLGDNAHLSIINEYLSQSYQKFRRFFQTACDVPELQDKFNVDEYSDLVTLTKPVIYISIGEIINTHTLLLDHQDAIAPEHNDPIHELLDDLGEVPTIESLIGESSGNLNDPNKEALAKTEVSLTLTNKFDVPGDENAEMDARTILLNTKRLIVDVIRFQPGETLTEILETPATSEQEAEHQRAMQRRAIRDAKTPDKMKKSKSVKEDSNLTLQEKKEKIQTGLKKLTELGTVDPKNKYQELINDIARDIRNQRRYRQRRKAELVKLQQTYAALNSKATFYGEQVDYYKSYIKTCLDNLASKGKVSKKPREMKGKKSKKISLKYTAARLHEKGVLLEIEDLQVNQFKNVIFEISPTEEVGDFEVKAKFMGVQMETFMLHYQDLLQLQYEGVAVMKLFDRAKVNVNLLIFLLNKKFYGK

Test [1] has as its target T1, Flag-TRIM56 (tripartite motif containing 56) (UniProt Q9BRZ2).
T1 sequence: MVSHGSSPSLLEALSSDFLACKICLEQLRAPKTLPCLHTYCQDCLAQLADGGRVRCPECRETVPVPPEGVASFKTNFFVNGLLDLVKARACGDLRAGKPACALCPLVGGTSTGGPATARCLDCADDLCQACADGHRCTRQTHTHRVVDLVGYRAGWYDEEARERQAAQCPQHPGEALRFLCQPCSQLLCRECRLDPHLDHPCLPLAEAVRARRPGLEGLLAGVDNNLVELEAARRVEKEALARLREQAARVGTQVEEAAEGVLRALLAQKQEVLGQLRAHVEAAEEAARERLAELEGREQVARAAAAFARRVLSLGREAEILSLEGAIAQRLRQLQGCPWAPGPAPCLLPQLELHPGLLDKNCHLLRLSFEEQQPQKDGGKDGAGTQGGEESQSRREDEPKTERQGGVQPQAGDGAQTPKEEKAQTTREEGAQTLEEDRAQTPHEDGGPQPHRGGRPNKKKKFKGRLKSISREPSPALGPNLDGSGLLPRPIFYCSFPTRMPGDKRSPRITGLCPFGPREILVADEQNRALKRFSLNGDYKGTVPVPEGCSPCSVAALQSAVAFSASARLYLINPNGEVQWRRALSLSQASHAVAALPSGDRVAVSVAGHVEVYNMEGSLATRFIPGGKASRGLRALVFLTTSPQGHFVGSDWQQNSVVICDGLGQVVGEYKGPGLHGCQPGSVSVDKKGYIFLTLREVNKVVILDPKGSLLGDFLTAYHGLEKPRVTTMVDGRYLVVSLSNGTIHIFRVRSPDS
The experiment in a line: co-IP; anti-Flag antibody, lysate of U251 cells transfected with Flag-TRIM56; Protein A + G magnetic beads, overnight at 4 °C; immunoblot.

In the next test the target is Myc-IQGAP1 (UniProt P46940). The experiment in a line: co-IP; U251 cells co-transfected with Myc-IQGAP1 and Flag-TRIM56_N, Flag-TRIM56_C or Flag-TRIM56_WT; MG132 10 μM; Protein A + G magnetic beads, overnight at 4 °C; immunoblot. (In general: A western blot detects proteins with antibodies after separation by electrophoresis.)
For test [2], the target named is IQ motif containing GTPase activating protein 1 (IQGAP1), endogenous (human (endogenous in U251 and U87)) (UniProt P46940). The test can be described thus: co-IP; anti-IQGAP1 antibody, lysate of U87 cells, endogenous proteins; Protein A + G magnetic beads, overnight at 4 °C; immunoblot.

As for “IQ motif containing GTPase activating protein 1 (IQGAP1), endogenous (from UniProt P46940 1-1657)”, the binding entry in test [1] was “binds”.

B1: Flag-TRIM56_C (251-755 aa) (domain or fragment, UniProt Q9BRZ2 251-755)
chain: VGTQVEEAAEGVLRALLAQKQEVLGQLRAHVEAAEEAARERLAELEGREQVARAAAAFARRVLSLGREAEILSLEGAIAQRLRQLQGCPWAPGPAPCLLPQLELHPGLLDKNCHLLRLSFEEQQPQKDGGKDGAGTQGGEESQSRREDEPKTERQGGVQPQAGDGAQTPKEEKAQTTREEGAQTLEEDRAQTPHEDGGPQPHRGGRPNKKKKFKGRLKSISREPSPALGPNLDGSGLLPRPIFYCSFPTRMPGDKRSPRITGLCPFGPREILVADEQNRALKRFSLNGDYKGTVPVPEGCSPCSVAALQSAVAFSASARLYLINPNGEVQWRRALSLSQASHAVAALPSGDRVAVSVAGHVEVYNMEGSLATRFIPGGKASRGLRALVFLTTSPQGHFVGSDWQQNSVVICDGLGQVVGEYKGPGLHGCQPGSVSVDKKGYIFLTLREVNKVVILDPKGSLLGDFLTAYHGLEKPRVTTMVDGRYLVVSLSNGTIHIFRVRSPDS
As for B1, in the test with Myc-IQGAP1, the binding result is given as “no binding”.

B2: Flag-TRIM56_N (1-250 aa, containing the RING finger domain) (domain or fragment, UniProt Q9BRZ2 1-250)
chain: MVSHGSSPSLLEALSSDFLACKICLEQLRAPKTLPCLHTYCQDCLAQLADGGRVRCPECRETVPVPPEGVASFKTNFFVNGLLDLVKARACGDLRAGKPACALCPLVGGTSTGGPATARCLDCADDLCQACADGHRCTRQTHTHRVVDLVGYRAGWYDEEARERQAAQCPQHPGEALRFLCQPCSQLLCRECRLDPHLDHPCLPLAEAVRARRPGLEGLLAGVDNNLVELEAARRVEKEALARLREQAAR
Consider B2, for which, in the test with Myc-IQGAP1, the binding entry was “binds”.

B3: TRIM56 (tripartite motif containing 56), endogenous (protein, UniProt Q9BRZ2 1-755)
chain: MVSHGSSPSLLEALSSDFLACKICLEQLRAPKTLPCLHTYCQDCLAQLADGGRVRCPECRETVPVPPEGVASFKTNFFVNGLLDLVKARACGDLRAGKPACALCPLVGGTSTGGPATARCLDCADDLCQACADGHRCTRQTHTHRVVDLVGYRAGWYDEEARERQAAQCPQHPGEALRFLCQPCSQLLCRECRLDPHLDHPCLPLAEAVRARRPGLEGLLAGVDNNLVELEAARRVEKEALARLREQAARVGTQVEEAAEGVLRALLAQKQEVLGQLRAHVEAAEEAARERLAELEGREQVARAAAAFARRVLSLGREAEILSLEGAIAQRLRQLQGCPWAPGPAPCLLPQLELHPGLLDKNCHLLRLSFEEQQPQKDGGKDGAGTQGGEESQSRREDEPKTERQGGVQPQAGDGAQTPKEEKAQTTREEGAQTLEEDRAQTPHEDGGPQPHRGGRPNKKKKFKGRLKSISREPSPALGPNLDGSGLLPRPIFYCSFPTRMPGDKRSPRITGLCPFGPREILVADEQNRALKRFSLNGDYKGTVPVPEGCSPCSVAALQSAVAFSASARLYLINPNGEVQWRRALSLSQASHAVAALPSGDRVAVSVAGHVEVYNMEGSLATRFIPGGKASRGLRALVFLTTSPQGHFVGSDWQQNSVVICDGLGQVVGEYKGPGLHGCQPGSVSVDKKGYIFLTLREVNKVVILDPKGSLLGDFLTAYHGLEKPRVTTMVDGRYLVVSLSNGTIHIFRVRSPDS
Regarding B3, in test [2], the binding result is given as “binds”.

Values taken from paper PMC9985612.
